Reference: PubChem BioAssay AID652272 (Drosophila RNAi Screening Center, 2013)
Assay: 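Finding fly genes that regulate Hedgehog signal transduction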 (primary screen). Cells: Drosophila clone 8 (Cl8) cells. Reagent: long dsRNA against Drosophila genes. Read-out: 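Plate reader light from a firefly reporter under a ptc promoter fragment that responds to Hedgehog, with Renilla light as transfection reference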. Reading the numbers: firefly Hh reporter signal: higher = more ptc reporter light; Renilla reference signal: higher = more Renilla control light. Hit rule: 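Hit when the z-score averaged over two replicates is under -2 or over +3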. Calls: active = hit: reporter lowered or raised; inactive = not a hit.
In all, the deposit lists about 21,000 reagents; below is a random part of those that have a named target and a result. In the full data, 503 (2.4%) were called active. 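Raw plate light values, not normalised; calls rest on replicate z-scores that were not deposited; hits include reporter decreases as well as increases.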 Reagents against one gene are numbered here. The record does not give: the amount of reagent, the time to read-out.

no.	gene	reagent no.	firefly Hh reporter signal, replicate 1	firefly Hh reporter signal, replicate 2	firefly Hh reporter signal, replicate 3	Renilla reference signal, replicate 1	Renilla reference signal, replicate 2	Outcome
1	Msr-110	1	1.05e5	82644		4597	3488	inactive
2	nvy (nervy)	1	1.28e5	3.84e5	1.10e5	5648	24562	inactive
3	Nepl8 (Neprilysin-like 8)	1	1.28e5	63047		3365	3616	inactive
4	kra (krasavietz)	1	82854	49552		3387	2163	inactive
5	Or69a (Odorant receptor 69a)	1	41505	35040	48180	3240	3297	inactive
6	Spred (Sprouty-related protein with EVH-1 domain)	1	93644	86931		4176	3276	inactive
7	CG6462	1	53867	46336		5109	3698	inactive
8	hlk (hulk)	1	91593	52789		2052	2423	inactive
9	hlk (hulk)	2	1.16e5	49292		2567	3760	inactive
10	tup (tailup)	1	1.07e5	62340		4391	3260	inactive
11	CG5592	1	44748	51753		4924	3036	inactive
12	CG15459	1	96273	4.32e5	2.85e5	2642	3026	inactive
13	CG30429	1	99962	2.21e5		2615	9552	inactive
14	E(spl)m5-HLH (Enhancer of split m5, helix-loop-helix)	1	5.18e5	75639		26336	2376	inactive
15	NitFhit (Nitrilase and fragile histidine triad fusion protein)	1	83392	48969		2844	3525	inactive
16	CG7550	1	59149	63003		5654	4690	inactive
17	Non1 (Novel nucleolar protein 1)	1	40955	14604		2685	853	inactive
18	hng2 (hinge2)	1	77115	1.05e5		3302	3080	inactive
19	CG17648	1	1.35e5	72320		2914	1895	inactive
20	RpL26 (Ribosomal protein L26)	1	29408	46243		1837	3204	active
21	CG9743	1	70972	98611		2256	2387	inactive
22	Flo2 (Flotillin 2)	1	6.77e5	2.53e5		42149	6272	inactive
23	Flo2 (Flotillin 2)	2	89754	2.19e5		2448	11458	inactive

2 successive records from above:
no.	gene	reagent no.	firefly Hh reporter signal, replicate 1	firefly Hh reporter signal, replicate 2	firefly Hh reporter signal, replicate 3	Renilla reference signal, replicate 1	Renilla reference signal, replicate 2	Outcome
22	Flo2 (Flotillin 2)	1	6.77e5	2.53e5		42149	6272	inactive
23	Flo2 (Flotillin 2)	2	89754	2.19e5		2448	11458	inactive
